Results reported in paper doi:10.1101/2024.12.24.630236.
No constants are given. Whether binding was seen depends on the method and setting. Binding seen in cells or lysates may run through a third protein. Some binding calls cover weakened binding; strength is not graded here.

Target: Protein A-Protein G fused DddA (pAG-DddA, His-tagged)
Assay: pull-down

B1: immunity protein DddAI (protein)
chain: MYADDFDGEIEIDEVDSLVEFLSRRPAFDANNFVLTFEESGFPQLNIFAKNDIAVVYYMDIGENFVSKGNSASGGTEKFYENKLGGEVDLSKDCVVSKEQMIEAAKQFFATKQRPEQLTWSEL
binding: binds
